Laboratory results published in patent publication US20020081719.

Tested on: PPARγ/RXR heterodimer
Assay: EMSA
Details: dimeric complex only; 100 mM KCl, 40 mM Hepes pH 7.5, 0.5 mM ZnCl2, 4 C; protein in a lysate after overexpression; label: 32P

Sequence: CAAAACTAGGTCAAAGGTCA (double strand) [DR1]
- binding result: binds

For at least one entry, the source does not settle the construct or the ends of the probe. At least one result comes from cells or an extract, where the contact may be indirect.
